Measured values published in patent US20140221499A1, “NOVEL RODENT CONTROL AGENTS AND USES THEREOF” (priority 2011, published 2014).
Some results were stated once for a whole list of compounds, not compound by compound.

Experiments:
mTAAR7e-YC = molecular target: T1, mTAAR7e-YC (Mus musculus, UniProt Q5QD09, S132Y/S133C); experiment: Reporter gene assay on mutant receptor mTAAR7e-YC; type: cell-based; details: mutant vs mTAAR7e
T1 construct: Full Taar coding regions were cloned into pcDNA3.1-(Invitrogen); Rho tag (first 20 aa of bovine rhodopsin + linker); expressed in transfected cells; host or cells: HEK293
T1 sequence (Q5QD09 1-358 S132Y/S133C): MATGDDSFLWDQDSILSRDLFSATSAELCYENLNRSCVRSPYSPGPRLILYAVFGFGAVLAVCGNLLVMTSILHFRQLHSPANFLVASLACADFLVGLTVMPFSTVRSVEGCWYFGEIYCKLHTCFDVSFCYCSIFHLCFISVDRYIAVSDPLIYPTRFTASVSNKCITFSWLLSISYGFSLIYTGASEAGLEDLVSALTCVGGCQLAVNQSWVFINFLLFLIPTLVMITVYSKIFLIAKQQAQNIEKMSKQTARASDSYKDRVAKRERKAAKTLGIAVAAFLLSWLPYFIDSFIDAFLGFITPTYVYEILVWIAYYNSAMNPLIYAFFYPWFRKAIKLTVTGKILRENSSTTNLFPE

mTAAR7f-SS = molecular target: T2, mTAAR7f-SS (Mus musculus, UniProt Q5QD08, C133S/Y132S); experiment: Reporter gene assay on mutant receptor mTAAR7f-SS; type: cell-based; details: mutant vs mTAAR7f
T2 construct: Full Taar coding regions were cloned into pcDNA3.1-(Invitrogen); Rho tag (first 20 aa of bovine rhodopsin + linker); expressed in transfected cells; host or cells: HEK293
T2 sequence (Q5QD08 1-358 Y132S/C133S): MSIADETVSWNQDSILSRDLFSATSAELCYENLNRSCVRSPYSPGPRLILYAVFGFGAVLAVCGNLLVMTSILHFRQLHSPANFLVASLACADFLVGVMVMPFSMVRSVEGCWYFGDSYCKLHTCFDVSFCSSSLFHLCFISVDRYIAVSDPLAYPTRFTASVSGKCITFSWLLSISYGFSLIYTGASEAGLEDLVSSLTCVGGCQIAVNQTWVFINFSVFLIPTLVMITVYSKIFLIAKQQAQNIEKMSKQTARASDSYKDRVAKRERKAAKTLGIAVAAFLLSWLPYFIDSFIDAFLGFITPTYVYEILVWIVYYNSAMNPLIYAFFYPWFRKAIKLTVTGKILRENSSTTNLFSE
Experimental: To test this, we created mutant receptors in which sequences of mTAAR7e were swapped into mTAAR7f and vice versa. Position 132^3.37 is a tyrosine in mTAAR7f and the other three receptors that detect 10, but a serine in mTAAR7e and a cysteine in rTAAR7h, the two receptors that detect 6. Furthermore, position 133^3.38 is a cysteine in mTAAR7f but a serine in mTAAR7e and rTAAR7h. We altered positions 132^3.37 and 133^3.38 by mutation of mTAAR7e (‘mTAAR7e-YC’) and mTAAR7f (‘mTAAR7f-SS’) and examined odor responses of these mutants using the cellular reporter gene assay (FIG. 9).
TAAR functional assays. Full Taar coding regions were cloned into pcDNA3.1-(Invitrogen) with or without a 5′ DNA extension of 69 bp encoding the first 20 amino acids of bovine rhodopsin followed by a cloning linker ([…]). Point mutations were introduced in mTAAR7e and mTAAR7f by overlap extension PCR. Functional assays were performed as described (40, 42). Fluorescence was measured on an EnVision plate reader (Perkin Elmer) and SEAP activity graphed as relative fluorescence of a phosphatase substrate.

| Compound | decreased affinity of mTAAR7e-YC (mTAAR7e-YC) | increases in affinity of mTAAR7f-SS (mTAAR7f-SS) |
| --- | --- | --- |
| COc1ccc2[nH]cc(CCN(C)C)c2c1 [ligand 7, 5-methoxy-N,N-dimethyltryptamine] | > 1,000 fold | > 1,000 fold |
| CN(C)CCc1ccccc1 [ligand 6, N,N-dimethyl-2-phenylethylamine] | > 1,000 fold | > 1,000 fold |
